Test results reported in article PMC3194794.

Molecular target: Dynamin 2, yeast two-hybrid fusion (human)
Assay: two-hybrid; S. cerevisiae AH109 co-transformed with bait and prey plasmids; selection on SD-Leu-Trp, interaction by growth on SD-Leu-Trp-His-Ade

B1: Dynamin 1, yeast two-hybrid fusion (protein, UniProt Q05193 1-864)
chain: MGNRGMEDLIPLVNRLQDAFSAIGQNADLDLPQIAVVGGQSAGKSSVLENFVGRDFLPRGSGIVTRRPLVLQLVNATTEYAEFLHCKGKKFTDFEEVRLEIEAETDRVTGTNKGISPVPINLRVYSPHVLNLTLVDLPGMTKVPVGDQPPDIEFQIRDMLMQFVTKENCLILAVSPANSDLANSDALKVAKEVDPQGQRTIGVITKLDLMDEGTDARDVLENKLLPLRRGYIGVVNRSQKDIDGKKDITAALAAERKFFLSHPSYRHLADRMGTPYLQKVLNQQLTNHIRDTLPGLRNKLQSQLLSIEKEVEEYKNFRPDDPARKTKALLQMVQQFAVDFEKRIEGSGDQIDTYELSGGARINRIFHERFPFELVKMEFDEKELRREISYAIKNIHGIRTGLFTPDMAFETIVKKQVKKIREPCLKCVDMVISELISTVRQCTKKLQQYPRLREEMERIVTTHIREREGRTKEQVMLLIDIELAYMNTNHEDFIGFANAQQRSNQMNKKKTSGNQDEILVIRKGWLTINNIGIMKGGSKEYWFVLTAENLSWYKDDEEKEKKYMLSVDNLKLRDVEKGFMSSKHIFALFNTEQRNVYKDYRQLELACETQEEVDSWKASFLRAGVYPERVGDKEKASETEENGSDSFMHSMDPQLERQVETIRNLVDSYMAIVNKTVRDLMPKTIMHLMINNTKEFIFSELLANLYSCGDQNTLMEESAEQAQRRDEMLRMYHALKEALSIIGDINTTTVSTPMPPPVDDSWLQVQSVPAGRRSPTSSPTPQRRAPAVPPARPGSRGPAPGPPPAGSALGGAPPVPSRPGASPDPFGPPPQVPSRPNRAPPGVPSRSGQASPSRPESPRPPFDL
- binding: binds

No constants are given. Whether binding was seen depends on the method and setting. Binding can be weak; no strength is given. Where a sequence is shown, tags or fusion partners need not be part of it.
